Here are results for one sequence from paper PMC3729527, “Redox-sensitive DNA binding by homodimeric Methanosarcina acetivorans MsvR is modulated by cysteine residues”.

For at least one entry, the source does not settle the construct or the ends of the probe. At least one verdict rests on a figure or table, not on a statement of the authors. Where a protein sequence is shown, tags need not be part of it.

This data set deals with T1, MaMsvR (Methanosarcina acetivorans C2A) (UniProt Q8TQT2).
T1 sequence (looked up, limits assumed): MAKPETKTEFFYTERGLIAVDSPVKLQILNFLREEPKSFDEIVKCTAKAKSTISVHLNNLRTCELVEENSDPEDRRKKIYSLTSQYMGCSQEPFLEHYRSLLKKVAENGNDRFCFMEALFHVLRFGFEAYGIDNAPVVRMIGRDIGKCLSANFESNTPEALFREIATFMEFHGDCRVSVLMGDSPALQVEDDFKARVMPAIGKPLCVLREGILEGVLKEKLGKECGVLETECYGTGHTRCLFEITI
Briefly: EMSA. To be noted: 5 mM DTT, 1 uM protein, 50 nM DNA; EMSA at room temperature, 10 nM DNA and 200 nM MsvR (50 nM DNA and 1 uM protein for 50 bp oligos), with or without 5 mM DTT; recombinant protein; protein details: N-terminal Strep-tag. For orientation: In EMSA bound probe runs differently from free probe, usually more slowly.

In the case of “TATTTCAAACATGATTATTCGTAGTCACGCGAACGTTTTATATATTCAAA (double strand) [Ma PmsvR 50 bp]”, the binding result is given as “binds”.
